Test results published in the supplement of paper PMC10849652.
Some of the results follow.

Sequences of proteins named here, by UniProt entry; tags and fusion partners are left off. A change or cut given only in a name is not applied to a line headed by its entry.
UniProt Q92616, whole entry, looked up: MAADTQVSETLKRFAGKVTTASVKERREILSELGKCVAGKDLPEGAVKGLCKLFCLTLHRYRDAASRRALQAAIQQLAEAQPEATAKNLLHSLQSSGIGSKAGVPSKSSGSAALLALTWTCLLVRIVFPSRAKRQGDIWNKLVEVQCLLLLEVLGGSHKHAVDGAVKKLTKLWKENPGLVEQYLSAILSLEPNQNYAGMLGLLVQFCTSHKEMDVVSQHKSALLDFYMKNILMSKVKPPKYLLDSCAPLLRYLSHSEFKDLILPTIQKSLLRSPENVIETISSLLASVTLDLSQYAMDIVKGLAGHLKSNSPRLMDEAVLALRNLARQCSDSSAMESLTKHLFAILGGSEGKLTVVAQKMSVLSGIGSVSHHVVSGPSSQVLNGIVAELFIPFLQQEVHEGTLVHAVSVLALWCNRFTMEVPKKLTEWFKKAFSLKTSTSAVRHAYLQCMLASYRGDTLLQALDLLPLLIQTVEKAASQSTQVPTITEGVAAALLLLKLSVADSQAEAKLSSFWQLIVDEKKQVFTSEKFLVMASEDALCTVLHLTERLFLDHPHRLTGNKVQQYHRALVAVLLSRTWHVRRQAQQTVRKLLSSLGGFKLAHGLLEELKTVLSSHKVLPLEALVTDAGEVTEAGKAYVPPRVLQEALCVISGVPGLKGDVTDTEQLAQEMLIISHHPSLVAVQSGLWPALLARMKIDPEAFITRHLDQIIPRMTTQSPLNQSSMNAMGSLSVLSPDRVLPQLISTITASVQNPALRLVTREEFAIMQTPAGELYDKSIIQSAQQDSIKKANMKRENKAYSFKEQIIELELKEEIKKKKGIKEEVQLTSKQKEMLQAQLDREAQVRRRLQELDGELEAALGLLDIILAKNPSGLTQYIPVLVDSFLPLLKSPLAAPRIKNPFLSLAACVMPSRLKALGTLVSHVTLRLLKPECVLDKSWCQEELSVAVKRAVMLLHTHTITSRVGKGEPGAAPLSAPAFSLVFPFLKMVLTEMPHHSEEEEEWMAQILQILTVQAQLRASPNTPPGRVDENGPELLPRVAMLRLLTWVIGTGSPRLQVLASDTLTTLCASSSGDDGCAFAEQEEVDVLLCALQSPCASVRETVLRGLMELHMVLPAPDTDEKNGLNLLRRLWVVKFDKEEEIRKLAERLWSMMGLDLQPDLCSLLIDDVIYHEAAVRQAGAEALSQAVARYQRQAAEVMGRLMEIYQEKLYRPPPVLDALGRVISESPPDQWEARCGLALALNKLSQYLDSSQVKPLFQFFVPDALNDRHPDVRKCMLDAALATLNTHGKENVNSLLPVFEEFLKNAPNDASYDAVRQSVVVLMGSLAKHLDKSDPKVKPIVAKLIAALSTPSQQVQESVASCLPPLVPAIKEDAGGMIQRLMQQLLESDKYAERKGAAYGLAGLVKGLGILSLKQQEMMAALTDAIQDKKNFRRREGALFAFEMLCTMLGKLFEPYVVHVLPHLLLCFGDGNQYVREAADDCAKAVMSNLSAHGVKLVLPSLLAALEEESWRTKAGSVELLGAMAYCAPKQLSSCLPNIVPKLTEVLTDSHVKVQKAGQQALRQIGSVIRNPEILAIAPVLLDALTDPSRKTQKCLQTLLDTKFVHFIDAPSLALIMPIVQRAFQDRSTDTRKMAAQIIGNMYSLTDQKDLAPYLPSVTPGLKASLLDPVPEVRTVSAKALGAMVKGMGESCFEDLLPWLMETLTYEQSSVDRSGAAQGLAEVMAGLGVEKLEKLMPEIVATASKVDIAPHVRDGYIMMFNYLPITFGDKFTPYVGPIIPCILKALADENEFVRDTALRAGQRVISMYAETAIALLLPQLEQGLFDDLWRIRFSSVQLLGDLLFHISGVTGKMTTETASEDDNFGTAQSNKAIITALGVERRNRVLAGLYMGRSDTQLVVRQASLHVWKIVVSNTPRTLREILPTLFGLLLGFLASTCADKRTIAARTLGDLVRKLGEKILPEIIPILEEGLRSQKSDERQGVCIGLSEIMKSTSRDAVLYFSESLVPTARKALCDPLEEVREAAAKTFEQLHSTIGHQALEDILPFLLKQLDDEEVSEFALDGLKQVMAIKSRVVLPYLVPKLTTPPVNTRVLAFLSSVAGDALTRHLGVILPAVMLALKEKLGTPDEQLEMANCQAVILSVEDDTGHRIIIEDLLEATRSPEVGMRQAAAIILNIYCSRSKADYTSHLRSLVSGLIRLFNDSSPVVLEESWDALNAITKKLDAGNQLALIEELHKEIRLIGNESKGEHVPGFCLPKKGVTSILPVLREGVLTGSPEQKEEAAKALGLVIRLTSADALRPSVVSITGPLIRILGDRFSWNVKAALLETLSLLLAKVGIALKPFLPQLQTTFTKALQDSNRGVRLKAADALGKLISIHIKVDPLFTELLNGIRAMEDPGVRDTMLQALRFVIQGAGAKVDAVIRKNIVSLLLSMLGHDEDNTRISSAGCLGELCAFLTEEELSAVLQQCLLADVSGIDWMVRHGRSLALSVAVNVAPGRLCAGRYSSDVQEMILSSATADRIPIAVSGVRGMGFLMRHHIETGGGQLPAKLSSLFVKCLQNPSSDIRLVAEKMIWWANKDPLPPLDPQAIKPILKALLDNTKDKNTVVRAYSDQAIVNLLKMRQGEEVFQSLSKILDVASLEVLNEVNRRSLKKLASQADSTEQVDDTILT
UniProt O75600: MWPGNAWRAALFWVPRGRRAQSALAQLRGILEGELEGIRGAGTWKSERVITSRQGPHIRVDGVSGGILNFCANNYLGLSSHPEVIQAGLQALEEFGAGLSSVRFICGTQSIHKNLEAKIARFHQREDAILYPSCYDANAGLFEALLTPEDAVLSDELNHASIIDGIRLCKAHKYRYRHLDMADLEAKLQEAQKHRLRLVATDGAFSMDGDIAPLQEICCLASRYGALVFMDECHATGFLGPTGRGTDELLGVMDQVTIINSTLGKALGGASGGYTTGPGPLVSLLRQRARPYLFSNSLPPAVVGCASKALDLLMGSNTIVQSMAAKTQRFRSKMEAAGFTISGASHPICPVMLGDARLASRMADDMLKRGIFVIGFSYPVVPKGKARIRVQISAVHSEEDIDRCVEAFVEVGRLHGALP
UniProt P07902: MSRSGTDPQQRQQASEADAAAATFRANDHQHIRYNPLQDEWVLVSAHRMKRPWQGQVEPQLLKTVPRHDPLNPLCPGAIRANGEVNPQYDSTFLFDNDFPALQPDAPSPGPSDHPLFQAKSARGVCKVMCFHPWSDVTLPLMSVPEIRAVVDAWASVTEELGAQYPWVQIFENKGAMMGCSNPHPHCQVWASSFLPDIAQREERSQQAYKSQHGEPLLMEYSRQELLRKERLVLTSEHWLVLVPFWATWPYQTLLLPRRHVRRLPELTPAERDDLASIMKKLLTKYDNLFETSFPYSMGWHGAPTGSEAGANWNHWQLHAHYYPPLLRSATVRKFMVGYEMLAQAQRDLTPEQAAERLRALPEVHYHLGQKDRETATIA
UniProt Q13480: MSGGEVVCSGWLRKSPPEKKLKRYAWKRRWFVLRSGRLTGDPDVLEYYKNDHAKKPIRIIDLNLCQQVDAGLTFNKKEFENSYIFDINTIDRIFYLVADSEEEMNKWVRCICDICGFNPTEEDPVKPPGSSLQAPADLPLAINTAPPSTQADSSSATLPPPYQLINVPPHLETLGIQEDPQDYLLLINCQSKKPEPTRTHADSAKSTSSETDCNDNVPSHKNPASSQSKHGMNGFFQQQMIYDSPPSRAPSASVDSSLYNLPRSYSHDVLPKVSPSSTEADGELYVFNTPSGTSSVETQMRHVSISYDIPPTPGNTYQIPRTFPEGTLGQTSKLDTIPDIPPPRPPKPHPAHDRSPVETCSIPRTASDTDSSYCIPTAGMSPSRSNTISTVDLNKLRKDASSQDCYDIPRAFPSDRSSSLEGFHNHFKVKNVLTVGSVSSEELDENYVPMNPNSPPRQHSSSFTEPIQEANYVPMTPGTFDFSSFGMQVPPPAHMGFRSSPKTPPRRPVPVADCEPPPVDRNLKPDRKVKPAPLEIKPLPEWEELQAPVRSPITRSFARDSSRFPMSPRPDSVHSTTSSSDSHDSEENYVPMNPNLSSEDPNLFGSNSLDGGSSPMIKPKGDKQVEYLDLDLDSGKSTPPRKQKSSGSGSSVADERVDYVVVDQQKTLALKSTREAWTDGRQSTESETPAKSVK
UniProt Q6NT46: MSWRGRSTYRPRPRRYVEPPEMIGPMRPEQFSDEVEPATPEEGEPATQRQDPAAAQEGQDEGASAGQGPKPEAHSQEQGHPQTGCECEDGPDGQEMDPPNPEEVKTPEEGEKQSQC
UniProt P16383: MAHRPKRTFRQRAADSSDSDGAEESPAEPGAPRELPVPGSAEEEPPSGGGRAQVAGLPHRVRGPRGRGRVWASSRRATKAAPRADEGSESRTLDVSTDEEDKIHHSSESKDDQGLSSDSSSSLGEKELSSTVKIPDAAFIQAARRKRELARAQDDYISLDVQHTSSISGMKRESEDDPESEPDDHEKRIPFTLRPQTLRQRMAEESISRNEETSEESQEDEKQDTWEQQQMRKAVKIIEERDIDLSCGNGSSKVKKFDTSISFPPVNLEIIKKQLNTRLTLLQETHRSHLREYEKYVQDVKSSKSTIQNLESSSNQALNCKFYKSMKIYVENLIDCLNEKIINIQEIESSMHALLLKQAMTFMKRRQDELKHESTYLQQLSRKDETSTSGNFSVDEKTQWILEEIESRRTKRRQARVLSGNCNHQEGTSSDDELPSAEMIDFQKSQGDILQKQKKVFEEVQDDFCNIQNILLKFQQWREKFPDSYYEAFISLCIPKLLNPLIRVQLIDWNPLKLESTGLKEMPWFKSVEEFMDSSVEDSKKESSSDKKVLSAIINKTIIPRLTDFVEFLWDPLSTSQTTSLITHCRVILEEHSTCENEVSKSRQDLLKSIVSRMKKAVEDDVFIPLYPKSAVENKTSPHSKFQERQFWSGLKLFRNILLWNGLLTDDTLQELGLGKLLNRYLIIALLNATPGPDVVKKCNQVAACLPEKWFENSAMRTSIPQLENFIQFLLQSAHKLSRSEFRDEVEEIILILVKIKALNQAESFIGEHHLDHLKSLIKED
UniProt Q9BVM4: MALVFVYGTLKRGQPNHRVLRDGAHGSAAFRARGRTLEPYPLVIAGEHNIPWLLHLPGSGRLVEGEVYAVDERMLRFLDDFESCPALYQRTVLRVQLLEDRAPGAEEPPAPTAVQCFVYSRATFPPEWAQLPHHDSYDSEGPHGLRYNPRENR
UniProt Q14697: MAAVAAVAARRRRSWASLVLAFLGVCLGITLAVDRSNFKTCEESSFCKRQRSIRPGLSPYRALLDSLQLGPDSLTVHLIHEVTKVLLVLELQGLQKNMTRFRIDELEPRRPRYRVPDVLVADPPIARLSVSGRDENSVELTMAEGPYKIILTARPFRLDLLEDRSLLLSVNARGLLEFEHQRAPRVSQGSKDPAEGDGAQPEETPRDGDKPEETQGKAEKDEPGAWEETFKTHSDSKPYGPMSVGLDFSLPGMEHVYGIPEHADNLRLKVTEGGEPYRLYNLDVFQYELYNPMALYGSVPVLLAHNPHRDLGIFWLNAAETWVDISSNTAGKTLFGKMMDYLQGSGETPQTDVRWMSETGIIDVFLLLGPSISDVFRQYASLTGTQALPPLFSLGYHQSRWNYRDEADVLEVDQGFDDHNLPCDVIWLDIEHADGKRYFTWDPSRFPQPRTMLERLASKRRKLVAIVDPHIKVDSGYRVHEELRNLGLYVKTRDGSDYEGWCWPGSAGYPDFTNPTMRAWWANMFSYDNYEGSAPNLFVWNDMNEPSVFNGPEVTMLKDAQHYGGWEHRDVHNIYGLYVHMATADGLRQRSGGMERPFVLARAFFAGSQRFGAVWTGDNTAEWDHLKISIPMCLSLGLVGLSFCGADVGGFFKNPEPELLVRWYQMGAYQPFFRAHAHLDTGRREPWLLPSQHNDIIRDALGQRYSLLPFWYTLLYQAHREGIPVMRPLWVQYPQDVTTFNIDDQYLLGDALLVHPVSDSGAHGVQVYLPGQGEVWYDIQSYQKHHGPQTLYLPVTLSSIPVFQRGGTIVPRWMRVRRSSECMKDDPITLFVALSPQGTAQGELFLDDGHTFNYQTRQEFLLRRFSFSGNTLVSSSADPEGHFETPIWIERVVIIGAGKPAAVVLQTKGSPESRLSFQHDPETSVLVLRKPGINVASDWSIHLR
UniProt Q14376: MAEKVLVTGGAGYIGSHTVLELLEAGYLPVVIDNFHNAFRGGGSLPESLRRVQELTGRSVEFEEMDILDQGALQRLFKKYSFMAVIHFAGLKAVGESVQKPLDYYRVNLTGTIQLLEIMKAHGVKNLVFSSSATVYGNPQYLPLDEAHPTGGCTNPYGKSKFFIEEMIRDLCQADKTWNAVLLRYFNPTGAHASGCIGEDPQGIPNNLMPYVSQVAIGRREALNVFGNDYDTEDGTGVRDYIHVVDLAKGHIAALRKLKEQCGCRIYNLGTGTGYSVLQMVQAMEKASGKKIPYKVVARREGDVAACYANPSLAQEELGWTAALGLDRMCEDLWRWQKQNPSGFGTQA
UniProt P30047: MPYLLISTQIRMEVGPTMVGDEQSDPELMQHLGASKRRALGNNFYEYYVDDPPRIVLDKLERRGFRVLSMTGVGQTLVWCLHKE

How the values were obtained:
Assay in all cases: log2 fold change, soluble protein after heating vs DMSO (PISA); higher = thermal stabilisation; K562 cells, 10 uM, 30 min; active = over 0.2 and 3.5 SD of the protein, either way, in both replicates (recomputed)
[1] = compound: CC[C@@H]1C(=O)N(C)c2cnc(Nc3ccc(C(=O)NC4CCN(C)CC4)cc3OC)nc2N1C1CCCC1
Summary of the method: (§1)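 K562 cells at 2×10^6 cells/mL were exposed to 10 μM compound for 30 min, then aliquots were heated for 3 min across 48°C-58°C, pooled, and extracted in PBS containing 0.5% NP-40 at 4°C. The supernatant after 21,000xg for 90 min was taken as soluble protein and measured by TMTpro 16plex LC-MS/MS with channel sums equalised. Thermal stability is reported relative to control samples, with values from duplicates. Fold changes are given on a log2 scale.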

volasertib = compound: CC[C@@H]1C(=O)N(C)c2cnc(Nc3ccc(C(=O)N[C@H]4CC[C@H](N5CCN(CC6CC6)CC5)CC4)cc3OC)nc2N1C(C)C [volasertib]
Summary of the method: as §1

[2] = compound: CC[C@H](C)N1C=C(C2=C(C=C(C=C21)C3=CN=C(C=C3)N4CCNCC4)C(=O)NCC5=C(C=C(NC5=O)C)C)C
Summary of the method: as §1

epoxomicin = compound: CC[C@H](C)[C@@H](C(=O)N[C@@H]([C@@H](C)O)C(=O)N[C@@H](CC(C)C)C(=O)[C@]1(CO1)C)NC(=O)[C@H]([C@@H](C)CC)N(C)C(=O)C [epoxomicin]
Summary of the method: as §1

[3] = compound: CCn1c(C(=O)N(C2CC2)C2CC2)cc2c3c(ncn3C)c(Nc3cc(C)n(C)n3)nc21
Summary of the method: as §1

[4] = compound: CCn1cc(-c2ccnc3[nH]c(-c4cccc(CN(C)C)c4)cc23)c(-c2ccc(NC(=O)N(C)C)cc2)n1
Summary of the method: as §1

[5] = compound: CN(C)CC(=O)Nc1ccc2[nH]c(=O)c3ccccc3c2c1
Summary of the method: as §1

rosiglitazone = compound: CN(CCOC1=CC=C(C=C1)C[C@H]2C(=O)NC(=O)S2)C3=CC=CC=N3 (racemic) [rosiglitazone]
Summary of the method: as §1

[6] = compound: CN1C2=C(C3=C1C(=O)N(N=C3)CC4=CC(=CC=C4)N)SC(=C2)S(=O)C
Summary of the method: as §1

[7] = compound: CN1CCC(CNc2ccc3ncc(-c4cccc(OC(F)(F)F)c4)n3n2)CC1
Summary of the method: as §1

Measured: log2 fold change

GCN1 (UniProt Q92616)
inactive: [1] 0.154 | volasertib 0.059 | [2] -0.008 | epoxomicin -0.287 | [3] -0.041 | [4] 0.145 | [5] -0.004 | rosiglitazone -0.075 | [6] 0.555 | [7] 0.064

GGH (UniProt Q92820)
inactive: [1] -0.041 | volasertib -0.047 | [2] -0.059 | epoxomicin 0.064 | [3] 0.069 | [4] -0.025 | [5] 0.019 | rosiglitazone -0.046 | [6] -0.002 | [7] -0.038

GCAT isoform 2 (UniProt O75600)
inactive: [1] 0.005 | volasertib 0.068 | [2] -0.027 | epoxomicin -0.002 | [3] -0.11 | [4] -0.063 | [5] -0.034 | rosiglitazone 0.006 | [6] 0.023 | [7] -0.118

GGPS1 (UniProt O95749)
inactive: [1] 0.063 | volasertib 0.104 | [2] -0.055 | epoxomicin 0.007 | [3] 0.019 | [4] 0.028 | [5] -0.026 | rosiglitazone 0.031 | [6] -0.031 | [7] -0.034

GFM1 (UniProt Q96RP9)
inactive: [1] 0.014 | volasertib -0.01 | [2] 0.041 | epoxomicin 0.081 | [3] -0.004 | [4] -0.089 | [5] 0.072 | rosiglitazone 0.046 | [6] -0.087 | [7] -0.182

GALT (UniProt P07902)
inactive: [1] 0.073 | volasertib 0.013 | [2] -0.201 | epoxomicin 0.014 | [3] -0.022 | [4] -0.007 | [5] 0.029 | rosiglitazone -0.008 | [6] 0.064 | [7] -0.002

GARS1 (UniProt P41250)
inactive: [1] 0.014 | volasertib 0.075 | [2] -0.026 | epoxomicin 0.014 | [3] 0.025 | [4] 0.023 | [5] -0.025 | rosiglitazone -0.032 | [6] -0.067 | [7] -0.013

GBA (UniProt P04062)
inactive: [1] 0.024 | volasertib 0.051 | [2] 0.059 | epoxomicin 0.015 | [3] 0.012 | [4] 0.087 | [5] 0.015 | rosiglitazone 0.031 | [6] 0.048 | [7] 0.026

GCLC (UniProt P48506)
inactive: [1] 0.006 | volasertib 0.016 | [2] -0.004 | epoxomicin 0.009 | [3] -0.023 | [4] -0.105 | [5] -0.022 | rosiglitazone 0.062 | [6] -0.006 | [7] -0.057

GART (UniProt C9JZG2)
inactive: [1] 0.043 | volasertib 0.015 | [2] -0.157 | epoxomicin 0.022 | [3] -0.142 | [4] 0.072 | [5] -0.028 | rosiglitazone 0.106 | [6] -0.012 | [7] -0.193

GAMT (UniProt Q14353)
inactive: [1] 0.055 | volasertib 0.265 | [2] 0.088 | epoxomicin -0.063 | [3] -0.007 | [4] -0.102 | [5] 0.041 | rosiglitazone 0.017 | [6] -0.026 | [7] 0.03

GAB1 isoform 2 (UniProt Q13480)
inactive: [1] -0.149 | volasertib 0.003 | [2] 0.055 | epoxomicin 0.005 | [3] -0.037 | [4] 0.041 | [5] 0 | rosiglitazone 0.004 | [6] 0.024 | [7] -0.094

2 entries picked at random from those above, as already listed:
GCN1 (UniProt Q92616)
inactive: [1] 0.154 | volasertib 0.059 | [2] -0.008 | epoxomicin -0.287 | [3] -0.041 | [4] 0.145 | [5] -0.004 | rosiglitazone -0.075 | [6] 0.555 | [7] 0.064

GALT (UniProt P07902)
inactive: [1] 0.073 | volasertib 0.013 | [2] -0.201 | epoxomicin 0.014 | [3] -0.022 | [4] -0.007 | [5] 0.029 | rosiglitazone -0.008 | [6] 0.064 | [7] -0.002

The list goes on:

GGCX (UniProt P38435)
inactive: [1] -0.061 | volasertib -0.083 | [2] 0.017 | epoxomicin -0.004 | [3] 0.027 | [4] 0.005 | [5] 0.022 | rosiglitazone -0.043 | [6] 0.041 | [7] 0.056

FRG1 (UniProt Q14331)
inactive: [1] 0.066 | volasertib 0.166 | [2] -0.02 | epoxomicin -0.08 | [3] -0.039 | [4] 0.063 | [5] -0.041 | rosiglitazone -0.047 | [6] 0.064 | [7] 0.025

FOXRED1 (UniProt Q96CU9)
inactive: [1] -0.009 | volasertib -0.085 | [2] -0.036 | epoxomicin 0.011 | [3] 0.018 | [4] 0.007 | [5] -0.063 | rosiglitazone 0.048 | [6] -0.116 | [7] -0.019

FYCO1 isoform 4 (UniProt Q9BQS8)
inactive: [1] -0.032 | volasertib -0.153 | [2] 0.09 | epoxomicin -0.013 | [3] -0.045 | [4] -0.146 | [5] 0.016 | rosiglitazone 0.009 | [6] -0.013 | [7] 0.014

FSCN1 (UniProt Q16658)
inactive: [1] -0.052 | volasertib -0.044 | [2] 0.019 | epoxomicin 0.127 | [3] 0.005 | [4] 0.007 | [5] 0.027 | rosiglitazone 0.01 | [6] -0.056 | [7] -0.005

FRYL (UniProt O94915)
inactive: [1] -0.012 | volasertib -0.179 | [2] 0.041 | epoxomicin -0.038 | [3] -0.017 | [4] 0 | [5] -0.006 | rosiglitazone 0 | [6] 0.046 | [7] 0.004

FXN (UniProt Q16595)
inactive: [1] -0.009 | volasertib -0.045 | [2] 0.029 | epoxomicin 0.02 | [3] 0.046 | [4] -0.036 | [5] 0.085 | rosiglitazone 0.002 | [6] -0.036 | [7] 0.12

GAGE2A (UniProt Q6NT46)
inactive: [1] 0.025 | volasertib 0.042 | [2] -0.008 | epoxomicin 0 | [3] -0.022 | [4] 0.014 | [5] 0.056 | rosiglitazone -0.023 | [6] 0.034 | [7] -0.001

GART (UniProt P22102)
inactive: [1] -0.093 | volasertib -0.078 | [2] 0.037 | epoxomicin -0.01 | [3] -0.005 | [4] -0.009 | [5] 0.052 | rosiglitazone 0.057 | [6] -0.05 | [7] -0.009

FRRS1 (UniProt Q6ZNA5)
inactive: [1] 0.11 | volasertib 0.002 | [2] -0.039 | epoxomicin 0.026 | [3] -0.001 | [4] 0.007 | [5] 0.019 | rosiglitazone -0.016 | [6] 0.004 | [7] 0.027

GET4 (UniProt Q7L5D6)
inactive: [1] -0.032 | volasertib -0.136 | [2] 0.083 | epoxomicin -0.043 | [3] 0.037 | [4] -0.169 | [5] 0.093 | rosiglitazone 0 | [6] 0.026 | [7] -0.136

GGA1 isoform 6 (UniProt Q9UJY5)
inactive: [1] 0.009 | volasertib -0.09 | [2] 0.056 | epoxomicin -0.005 | [3] -0.004 | [4] -0.04 | [5] 0 | rosiglitazone 0.003 | [6] -0.113 | [7] -0.001

GCFC2 (UniProt P16383)
inactive: [1] -0.005 | volasertib -0.053 | [2] 0.131 | epoxomicin 0.05 | [3] 0.011 | [4] 0.197 | [5] -0.011 | rosiglitazone -0.117 | [6] -0.068 | [7] -0.145

GALNT7 (UniProt Q86SF2)
inactive: [1] -0.082 | volasertib -0.149 | [2] 0.061 | epoxomicin 0.059 | [3] 0.004 | [4] -0.086 | [5] -0.022 | rosiglitazone 0.021 | [6] -0.084 | [7] -0.02

GGACT (UniProt Q9BVM4)
inactive: [1] 0

GANAB (UniProt Q14697)
inactive: [1] -0.311 | volasertib 0.082

GALE (UniProt Q14376)
inactive: [1] -0.03 | volasertib 0.051 | [2] 0.015 | epoxomicin 0.066 | [3] -0.065 | [4] -0.029 | [5] 0 | rosiglitazone -0.029 | [6] -0.144 | [7] 0.016

GALNT5 (UniProt Q7Z7M9)
inactive: [1] -0.021 | volasertib -0.09 | [2] 0.005 | epoxomicin -0.001 | [3] 0.006 | [4] -0.002 | [5] -0.009 | rosiglitazone 0.013 | [6] 0.016 | [7] 0.047

GCHFR (UniProt P30047)
inactive: [1] 0.192 | volasertib 0.07 | [2] -0.019 | epoxomicin -0.009 | [3] -0.067 | [4] 0.161 | [5] 0.062 | rosiglitazone 0.064 | [6] 0.163 | [7] -0.124
